According to paper PMC11957698:
Residue numbers refer to the chain shown, from its start. Numbers in names are those of the source. Results are given in words; binding and its absence hold for the method and conditions named. In cells and extracts the contact can be indirect. Some entries that bind do so weakly or less than the wild type.

The chains behind the UniProt entries cited, without tags or fusion partners.
UniProt P31001: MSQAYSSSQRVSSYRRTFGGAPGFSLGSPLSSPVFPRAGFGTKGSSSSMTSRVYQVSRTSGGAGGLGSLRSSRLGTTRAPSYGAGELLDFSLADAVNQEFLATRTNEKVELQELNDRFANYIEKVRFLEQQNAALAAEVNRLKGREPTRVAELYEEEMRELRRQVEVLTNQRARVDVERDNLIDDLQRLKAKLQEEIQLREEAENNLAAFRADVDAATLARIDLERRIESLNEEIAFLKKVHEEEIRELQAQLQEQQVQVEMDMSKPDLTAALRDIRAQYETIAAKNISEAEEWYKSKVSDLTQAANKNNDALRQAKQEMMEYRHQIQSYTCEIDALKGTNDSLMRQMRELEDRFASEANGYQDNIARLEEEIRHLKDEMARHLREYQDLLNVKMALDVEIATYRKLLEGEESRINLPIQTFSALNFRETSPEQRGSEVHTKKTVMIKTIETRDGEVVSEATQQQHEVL

B1: αB-crystallin (CRYAB), WT (protein, UniProt P23927 1-175)
chain: MDIAIHHPWIRRPFFPFHSPSRLFDQFFGEHLLESDLFSTATSLSPFYLRPPSFLRAPSWIDTGLSEMRLEKDRFSVNLDVKHFSPEELKVKVLGDVIEVHGKHEERQDEHGFISREFHRKYRIPADVDPLTITSSLSSDGVLTVNGPRKQVSGPERTIPITREEKPAVAAAPKK
B2: CRYAB S59D (phosphomimetic knock-in) (protein, UniProt P23927 1-175)
chain: B1 chain with S59D
B3: CRYAB S59A (phosphorylation-deficient knock-in) (protein, UniProt P23927 1-175)
chain: B1 chain with S59A

Biological target: desmin (mouse (endogenous in myocardium)) (UniProt P31001)
Assay: co-IP; IP with anti-desmin antibody on Protein A/G Sepharose from myocardial extracts of unstressed young adult WT, S59A and S59D mice (RIPA homogenate, 600g pellet dissolved in PBS with 1% SDS and 5 mM EDTA, sonicated, diluted 10-fold); blot for CRYAB

Row | Binder | binding
1 | B1 | binds
2 | B2 | binds
3 | B3 | binds
